Test results from patent US20030229207A1 (published 2003).
No constants are given. Whether binding was seen depends on the method and setting. Some binding calls cover weakened binding; strength is not graded here.

The chains behind the UniProt entries cited, without tags or fusion partners. Residues count along the entry.
UniProt P06127, residues 25-372: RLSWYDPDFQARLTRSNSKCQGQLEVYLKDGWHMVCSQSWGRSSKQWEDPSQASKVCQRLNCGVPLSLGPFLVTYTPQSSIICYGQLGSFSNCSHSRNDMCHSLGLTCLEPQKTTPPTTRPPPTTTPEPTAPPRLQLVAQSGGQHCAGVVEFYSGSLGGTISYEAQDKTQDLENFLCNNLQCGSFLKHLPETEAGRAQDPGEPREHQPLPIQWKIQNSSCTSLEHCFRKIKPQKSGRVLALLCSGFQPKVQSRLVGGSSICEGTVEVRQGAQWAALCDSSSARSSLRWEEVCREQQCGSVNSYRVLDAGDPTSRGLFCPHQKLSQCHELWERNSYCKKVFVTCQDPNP

Molecular target: recombinant soluble CD5 (UniProt P06127)
Assay: competition assay on plate-bound recombinant soluble CD5

B1: he3 Fab (Fab, V domains shown)
VH: EIQLVQSGGGLVKPGGSVRISCAASGYTFTNYGMNWVRQAPGKGLEWMGWINTHTGEPTYADSFKGRFTFSLDDSKNTAYLQINSLRAEDTAVYFCTRRGYDWYFDVWGQGTTVTVSS
VL: DIQMTQSPSSLSASVGDRVTITCRASQDINSYLSWFQQKPGKAPKTLIYRANRLESGVPSRFSGSGSGTDYTLTISSLQYEDFGIYYCQQYDESPWTFGGGTKLEIK
notes: Fab (he3 kappa and Fd) expressed in E. coli E104 from pING4628; also called Moderate-Risk Fab
binding: binds
